From PMC4513854

The chains behind the UniProt entries cited, without tags or fusion partners.
UniProt P23511, whole entry: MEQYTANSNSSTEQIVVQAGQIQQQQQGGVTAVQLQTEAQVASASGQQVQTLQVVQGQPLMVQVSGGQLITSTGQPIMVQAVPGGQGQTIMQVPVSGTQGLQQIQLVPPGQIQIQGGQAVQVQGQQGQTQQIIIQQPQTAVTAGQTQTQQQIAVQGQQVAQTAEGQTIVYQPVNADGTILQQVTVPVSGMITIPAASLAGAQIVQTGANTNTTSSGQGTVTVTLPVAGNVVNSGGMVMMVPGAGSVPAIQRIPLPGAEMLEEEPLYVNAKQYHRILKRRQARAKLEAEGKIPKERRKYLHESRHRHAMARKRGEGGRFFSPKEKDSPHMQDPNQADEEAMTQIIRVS

Tests used:
[1] = biological target: T1, SOX9 (recombinant human) (Homo sapiens) (UniProt P48436); test: EMSA; conditions: EMSA: Active Motif Gelshift Chemiluminescent kit, buffer not stated, commercial protein, label: 5' biotin
T1 sequence (looked up, limits assumed): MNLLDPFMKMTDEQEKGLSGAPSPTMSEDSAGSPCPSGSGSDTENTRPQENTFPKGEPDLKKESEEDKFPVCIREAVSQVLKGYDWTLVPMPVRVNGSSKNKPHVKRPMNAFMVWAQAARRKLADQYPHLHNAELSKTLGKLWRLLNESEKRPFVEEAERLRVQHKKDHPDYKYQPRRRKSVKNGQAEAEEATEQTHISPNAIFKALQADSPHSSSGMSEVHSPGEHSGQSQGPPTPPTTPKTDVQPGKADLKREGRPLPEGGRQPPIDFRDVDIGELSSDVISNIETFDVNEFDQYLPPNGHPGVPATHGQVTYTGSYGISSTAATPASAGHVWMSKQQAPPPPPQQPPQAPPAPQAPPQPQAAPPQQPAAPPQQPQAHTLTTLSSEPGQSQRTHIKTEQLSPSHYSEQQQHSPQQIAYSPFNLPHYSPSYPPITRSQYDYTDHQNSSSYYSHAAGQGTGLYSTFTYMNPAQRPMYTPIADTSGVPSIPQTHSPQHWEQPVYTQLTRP

[2] = biological target: T2, SOX9 (endogenous, HCT116 nuclear extract) (Homo sapiens) (UniProt P48436); test: pull-down (biotin oligo, western blot); conditions: polyIC, Pull-down: 1x buffer from 5x stock (75 mM Hepes pH 7.9, 400 mM NaCl, 75 mM KCl, 0.1 mM EDTA, 5 mM DTT, 5 mM PMSF, 15% glycerol), i.e. 15 mM Hepes, 80 mM NaCl, 15 mM KCl, protein in an extract, label: 5' biotin
T2 sequence (looked up, limits assumed): T1 sequence (looked up, limits assumed)

[3] = biological target: NF-YA (endogenous, HCT116 nuclear extract) (Homo sapiens) (UniProt P23511); test: pull-down (biotin oligo, western blot); conditions: polyIC, Pull-down: 1x buffer from 5x stock (75 mM Hepes pH 7.9, 400 mM NaCl, 75 mM KCl, 0.1 mM EDTA, 5 mM DTT, 5 mM PMSF, 15% glycerol), i.e. 15 mM Hepes, 80 mM NaCl, 15 mM KCl, protein in an extract, label: 5' biotin

“TCCCGCCTCCCTAACCTGATTGGTTTATTCAAACAAACC (double strand) [WT TOP2A oligo]”: no binding ([1]; without NF-Y); binds [2]; binds [3].

“ATGACAAGGTCTTTTTGAAGTCACCTGGAATGCTCCCTTT (double strand) [RASSF3 oligo]”: binds [1].

“TCCCGCCTCCCTAACCTGTTTGGTTTATTCAAACAAACC (double strand) [mutated TOP2A oligo (MTOP2A)]”: binds more weakly [2]; binds more weakly [3].

The exact form of at least one protein or probe is not confirmed. For part of these data: Negatives hold for the conditions tested. For part of these data: Tags and fusion partners may be left off the protein sequences shown. For part of these data: Where cells or extracts were used, other partners may take part. For part of these data: A weaker result is weaker than the reference pair of the same experiment.
